The target of assay [1] is T1, Pfu 4C11 split polymerase fragment II (468-775 Q484R/V604L/A662V-Ss07d7m) (Pyrococcus furiosus) (UniProt P61875).
T1 sequence: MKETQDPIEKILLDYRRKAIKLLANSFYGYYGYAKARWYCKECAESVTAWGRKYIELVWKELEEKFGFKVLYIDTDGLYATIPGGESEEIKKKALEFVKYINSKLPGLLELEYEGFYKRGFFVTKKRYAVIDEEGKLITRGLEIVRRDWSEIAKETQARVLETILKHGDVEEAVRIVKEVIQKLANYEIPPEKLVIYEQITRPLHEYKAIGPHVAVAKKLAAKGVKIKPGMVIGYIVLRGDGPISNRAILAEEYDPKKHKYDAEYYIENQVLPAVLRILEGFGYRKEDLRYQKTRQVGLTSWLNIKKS
Put plainly: co-purification of the two fragments after coupled translation in E. coli.

Assay [2] has as its target T2, 4C11 split polymerase C-terminal fragment, separately expressed: fragment II (Pfu 468-775 Q484R, V604L/A662V) (Pyrococcus furiosus) (UniProt P61875).
T2 sequence: T1 sequence
Put plainly: separately expressed fragments mixed about 1:1, refolded by dialysis, then Q-Sepharose and SP-Sepharose chromatography with SDS-PAGE of fractions.

Changes are numbered by the printed parent chain. Names and notes keep the numbering of the source. No constants are given. Whether binding was seen depends on the method and setting. For some assays here: Binding seen in cells or lysates may run through a third protein. Some binding calls cover weakened binding; strength is not graded here.

B1: Pfu 4C11 split polymerase fragment I (1-467 V93R/A318T) (enzyme)
chain: MILDVDYITEEGKPVIRLFKKENGKFKIEHDRTFRPYIYALLRDDSKIEEVKKITGERHGKIVRIVDVEKVEKKFLGKPITVWKLYLEHPQDRPTIREKVREHPAVVDIFEYDIPFAKRYLIDKGLIPMEGEEELKILAFDIETLYHEGEEFGKGPIIMISYADENEAKVITWKNIDLPYVEVVSSEREMIKRFLRIIREKDPDIIVTYNGDSFDFPYLAKRAEKLGIKLTIGRDGSEPKMQRIGDMTAVEVKGRIHFDLYHVITRTINLPTYTLEAVYEAIFGKPKEKVYADEIAKAWESGENLERVAKYSMEDAKTTYELGKEFLPMEIQLSRLVGQPLWDVSRSSTGNLVEWFLLRKAYERNEVAPNKPSEEEYQRRLRESYTGGFVKEPEKGLWENIVYLDFRALYPSIIITHNVSPDTLNLEGCKNYDIAPQVGHKFCKDIPGFIPSLLGHLLEERQKIKTK
Regarding B1, the binding result in assay [1] is listed as “binds”.

B2: 4C11 split polymerase N-terminal fragment, separately expressed: fragment I (Pfu 1-467, D141A, E143A, A318T) (enzyme)
chain: B1 chain with R93V, D141A, E143A
B2: the binding result in assay [2] is given as “binds”.
